Article PMC12583571
No constants are given. Whether binding was seen depends on the method and setting. In cells and extracts the contact can be indirect. Some entries that bind do so weakly or less than the wild type. One block for each substance: values may come before it.

Sequences of proteins named here, by UniProt entry; tags and fusion partners are left off.
UniProt P42859: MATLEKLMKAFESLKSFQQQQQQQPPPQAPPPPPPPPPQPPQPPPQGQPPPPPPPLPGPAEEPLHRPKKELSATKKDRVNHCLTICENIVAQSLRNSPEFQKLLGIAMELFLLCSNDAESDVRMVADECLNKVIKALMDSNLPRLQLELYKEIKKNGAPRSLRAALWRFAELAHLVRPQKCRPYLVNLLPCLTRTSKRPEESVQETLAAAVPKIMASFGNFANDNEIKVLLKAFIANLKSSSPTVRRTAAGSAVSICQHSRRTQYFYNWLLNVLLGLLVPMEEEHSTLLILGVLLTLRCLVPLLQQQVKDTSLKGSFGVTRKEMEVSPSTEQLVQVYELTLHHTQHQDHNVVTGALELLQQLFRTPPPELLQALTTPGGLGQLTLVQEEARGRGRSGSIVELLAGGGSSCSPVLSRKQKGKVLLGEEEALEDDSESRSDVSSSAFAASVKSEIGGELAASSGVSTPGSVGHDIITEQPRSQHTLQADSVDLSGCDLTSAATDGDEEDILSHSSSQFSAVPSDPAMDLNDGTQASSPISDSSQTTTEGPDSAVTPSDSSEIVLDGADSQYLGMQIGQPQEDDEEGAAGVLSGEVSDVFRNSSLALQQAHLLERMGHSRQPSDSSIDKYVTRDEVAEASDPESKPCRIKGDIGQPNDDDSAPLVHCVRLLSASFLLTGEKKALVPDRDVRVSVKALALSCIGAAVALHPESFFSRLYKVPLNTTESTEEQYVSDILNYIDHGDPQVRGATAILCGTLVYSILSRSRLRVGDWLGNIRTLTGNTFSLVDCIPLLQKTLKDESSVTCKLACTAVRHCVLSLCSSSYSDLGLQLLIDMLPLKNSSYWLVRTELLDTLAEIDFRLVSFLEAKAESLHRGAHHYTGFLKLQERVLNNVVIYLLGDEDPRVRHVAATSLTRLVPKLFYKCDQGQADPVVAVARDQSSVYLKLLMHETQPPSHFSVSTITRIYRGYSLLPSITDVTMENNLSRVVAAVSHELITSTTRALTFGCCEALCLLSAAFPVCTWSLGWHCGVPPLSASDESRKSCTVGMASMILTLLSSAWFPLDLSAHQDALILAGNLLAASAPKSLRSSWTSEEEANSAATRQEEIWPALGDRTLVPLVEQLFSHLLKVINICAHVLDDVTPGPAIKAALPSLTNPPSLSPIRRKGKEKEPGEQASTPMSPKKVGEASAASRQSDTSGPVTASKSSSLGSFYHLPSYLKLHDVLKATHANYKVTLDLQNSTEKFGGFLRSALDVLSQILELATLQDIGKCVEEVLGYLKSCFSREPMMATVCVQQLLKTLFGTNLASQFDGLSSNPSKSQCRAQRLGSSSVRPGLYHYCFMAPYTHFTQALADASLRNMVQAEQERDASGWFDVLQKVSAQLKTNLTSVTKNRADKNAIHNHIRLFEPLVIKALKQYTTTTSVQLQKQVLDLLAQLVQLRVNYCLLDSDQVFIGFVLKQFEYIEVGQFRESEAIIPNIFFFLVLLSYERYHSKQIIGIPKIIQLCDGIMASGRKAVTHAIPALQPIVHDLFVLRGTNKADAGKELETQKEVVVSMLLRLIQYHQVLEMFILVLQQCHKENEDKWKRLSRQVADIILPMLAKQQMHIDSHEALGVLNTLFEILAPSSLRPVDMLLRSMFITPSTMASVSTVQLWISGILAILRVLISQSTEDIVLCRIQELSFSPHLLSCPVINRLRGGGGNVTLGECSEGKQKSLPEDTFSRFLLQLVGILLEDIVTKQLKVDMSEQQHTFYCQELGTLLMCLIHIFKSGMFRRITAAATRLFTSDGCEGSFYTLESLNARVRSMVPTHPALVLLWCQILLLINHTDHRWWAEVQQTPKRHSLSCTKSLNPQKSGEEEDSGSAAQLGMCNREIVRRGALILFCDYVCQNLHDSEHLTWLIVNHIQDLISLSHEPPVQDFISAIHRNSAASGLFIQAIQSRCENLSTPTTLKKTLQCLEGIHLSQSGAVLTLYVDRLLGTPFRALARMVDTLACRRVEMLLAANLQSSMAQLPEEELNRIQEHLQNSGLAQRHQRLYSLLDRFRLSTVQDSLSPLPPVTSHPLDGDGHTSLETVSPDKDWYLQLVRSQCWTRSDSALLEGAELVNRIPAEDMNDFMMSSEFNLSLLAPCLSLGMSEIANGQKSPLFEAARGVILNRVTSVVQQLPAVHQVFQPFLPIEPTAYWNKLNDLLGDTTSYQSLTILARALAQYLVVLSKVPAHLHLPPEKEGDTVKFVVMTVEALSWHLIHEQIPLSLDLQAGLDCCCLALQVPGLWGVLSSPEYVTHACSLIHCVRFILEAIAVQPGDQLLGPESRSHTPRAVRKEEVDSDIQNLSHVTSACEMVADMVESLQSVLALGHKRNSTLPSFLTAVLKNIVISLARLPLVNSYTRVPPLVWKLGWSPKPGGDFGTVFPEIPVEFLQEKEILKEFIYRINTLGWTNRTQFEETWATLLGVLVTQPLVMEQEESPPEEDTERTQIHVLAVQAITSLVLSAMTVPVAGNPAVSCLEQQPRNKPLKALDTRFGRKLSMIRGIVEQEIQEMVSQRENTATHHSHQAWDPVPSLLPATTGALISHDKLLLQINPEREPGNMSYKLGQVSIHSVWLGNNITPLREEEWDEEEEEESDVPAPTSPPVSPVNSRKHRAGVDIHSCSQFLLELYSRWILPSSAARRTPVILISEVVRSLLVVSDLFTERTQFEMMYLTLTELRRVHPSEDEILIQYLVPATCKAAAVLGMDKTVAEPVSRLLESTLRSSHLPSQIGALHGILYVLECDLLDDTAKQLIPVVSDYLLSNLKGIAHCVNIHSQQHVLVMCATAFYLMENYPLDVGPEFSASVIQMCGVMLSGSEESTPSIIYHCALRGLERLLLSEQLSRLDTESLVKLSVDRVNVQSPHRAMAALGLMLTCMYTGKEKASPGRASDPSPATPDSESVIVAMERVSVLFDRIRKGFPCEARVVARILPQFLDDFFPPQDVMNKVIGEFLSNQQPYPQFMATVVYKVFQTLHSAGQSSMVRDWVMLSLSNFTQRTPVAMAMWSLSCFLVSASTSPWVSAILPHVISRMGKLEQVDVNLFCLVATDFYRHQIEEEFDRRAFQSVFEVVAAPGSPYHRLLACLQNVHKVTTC
UniProt Q8VBV4: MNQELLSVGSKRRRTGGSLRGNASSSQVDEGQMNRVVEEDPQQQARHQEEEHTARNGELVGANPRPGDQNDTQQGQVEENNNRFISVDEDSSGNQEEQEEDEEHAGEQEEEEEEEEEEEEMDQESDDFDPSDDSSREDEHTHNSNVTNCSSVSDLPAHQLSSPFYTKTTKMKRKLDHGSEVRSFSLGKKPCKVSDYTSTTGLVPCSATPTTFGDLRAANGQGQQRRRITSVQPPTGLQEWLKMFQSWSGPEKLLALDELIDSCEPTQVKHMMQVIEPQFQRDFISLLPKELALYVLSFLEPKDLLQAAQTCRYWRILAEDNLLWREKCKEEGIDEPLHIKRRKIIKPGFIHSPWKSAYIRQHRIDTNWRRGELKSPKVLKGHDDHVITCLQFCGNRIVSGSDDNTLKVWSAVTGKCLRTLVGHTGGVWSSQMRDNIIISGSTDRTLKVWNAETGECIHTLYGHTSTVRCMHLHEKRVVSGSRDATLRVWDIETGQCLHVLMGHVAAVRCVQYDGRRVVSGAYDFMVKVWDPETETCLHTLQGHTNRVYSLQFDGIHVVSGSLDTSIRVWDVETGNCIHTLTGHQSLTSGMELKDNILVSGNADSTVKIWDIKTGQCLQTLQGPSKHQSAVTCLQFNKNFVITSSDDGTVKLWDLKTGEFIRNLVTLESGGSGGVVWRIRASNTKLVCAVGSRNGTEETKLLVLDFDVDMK
UniProt Q969H0: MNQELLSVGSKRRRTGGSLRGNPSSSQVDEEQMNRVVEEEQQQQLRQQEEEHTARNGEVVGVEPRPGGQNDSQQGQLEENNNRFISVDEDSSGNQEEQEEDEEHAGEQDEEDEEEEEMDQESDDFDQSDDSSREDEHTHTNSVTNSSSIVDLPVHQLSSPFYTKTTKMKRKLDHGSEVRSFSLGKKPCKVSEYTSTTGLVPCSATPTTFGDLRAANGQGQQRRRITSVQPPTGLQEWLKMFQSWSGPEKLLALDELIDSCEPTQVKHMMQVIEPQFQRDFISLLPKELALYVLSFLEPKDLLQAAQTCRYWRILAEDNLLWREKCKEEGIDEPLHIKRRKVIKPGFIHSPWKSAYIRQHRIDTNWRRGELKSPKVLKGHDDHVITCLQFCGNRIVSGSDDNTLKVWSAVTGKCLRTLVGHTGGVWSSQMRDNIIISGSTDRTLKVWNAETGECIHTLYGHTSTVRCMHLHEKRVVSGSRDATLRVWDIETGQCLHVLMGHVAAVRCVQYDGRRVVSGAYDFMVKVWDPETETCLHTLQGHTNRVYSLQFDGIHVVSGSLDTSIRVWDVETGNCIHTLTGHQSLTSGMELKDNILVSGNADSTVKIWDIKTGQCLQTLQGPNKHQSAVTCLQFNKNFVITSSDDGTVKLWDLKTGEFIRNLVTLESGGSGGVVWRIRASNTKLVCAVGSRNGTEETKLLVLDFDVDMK

Key:
[1] = target: wild-type HTT (Q7), endogenous in STHdh Q7/7 cells (mouse (endogenous in STHdh)) (UniProt P42859); test: co-IP; co-immunoprecipitation in STHdh cells; antibodies, bait and buffer not described
[2] = target: wild-type HTT (Q7), endogenous in STHdh Q7/7 cells (mouse (endogenous in STHdh)) (UniProt P42859); test: proximity ligation; Duolink PLA on fixed cells; primary antibodies anti-FBXW7 (Abcam Ab192328, rabbit) and anti-HTT (Millipore Mab2166, mouse); red puncta; endogenous proteins in HeLa or STHdh (Q7, Q111) cells
[3] = target: wild-type huntingtin (wtHTT), endogenous in HeLa cells (human (endogenous in HeLa)) (UniProt P42858); test: as above
[4] = target: wild-type huntingtin (wtHTT), endogenous in HeLa cells (human (endogenous in HeLa)) (UniProt P42858); test: proximity ligation; Duolink PLA on fixed HeLa cells transiently expressing mRFP-FBXW7; primary antibodies anti-RFP (Proteintech, rabbit) and anti-HTT (Millipore Mab2166, mouse); green puncta

- binding [1]: binds
- binding [2]: binds
Substance: FBXW7, endogenous in mouse striatal STHdh cells (from UniProt Q8VBV4 1-710)

- binding [3]: binds
Substance: FBXW7 (F-box and WD repeat domain-containing protein), endogenous in HeLa cells (from UniProt Q969H0 1-707)

- binding [4]: binds
Substance: mRFP-tagged FBXW7 (α isoform) (from UniProt Q969H0 1-707)
